No constants are given. Whether binding was seen depends on the method and setting. Some binding calls cover weakened binding; strength is not graded here.
Tests used:
[1] = biological target: human CD3 expressed on cells (Jurkat cells; human lymphocytes/PBMCs) (human) (UniProt P07766); test: flow cytometry on CD3 positive Jurkat cells, detection with anti-human F(ab')2-PE, RFU
[2] = biological target: human CD3 expressed on cells (Jurkat cells; human lymphocytes/PBMCs) (human) (UniProt P07766); test: flow cytometry on human PBMCs, lymphocyte gate
[3] = biological target: human CD3 expressed on cells (Jurkat cells; human lymphocytes/PBMCs) (human) (UniProt P07766); test: flow cytometry on CD3 positive Jurkat cells

Amino acid sequences for entries named in this document (tags omitted). A change or cut given only in a name is not applied to a line headed by its entry.
UniProt P07766: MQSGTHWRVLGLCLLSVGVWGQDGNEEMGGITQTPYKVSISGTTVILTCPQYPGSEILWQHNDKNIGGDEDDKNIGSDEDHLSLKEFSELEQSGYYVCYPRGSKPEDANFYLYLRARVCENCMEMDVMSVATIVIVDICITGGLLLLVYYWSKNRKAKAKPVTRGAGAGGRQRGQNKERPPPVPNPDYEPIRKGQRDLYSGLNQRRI

Measured: binding

B1: mAb#Freiburg (antibody, human IgG1, lambda, V domains shown)
VH: EVQLVESGGGLVKPGGSLRLSCAASGFTFNTYAMNWVRQAPGKGLEWVGRIRSKYNNYATYYADSVKDRFTISRDDSKNTLYLQMNSLKTEDTAVYYCTTHGNFGNSYVSWFAYWGQGTLVTVSS
VL: QTVVTQEPSLTVSPGGTVTLTCRSSTGAVTTSNYANWVQQKPGQAPRGLIGGTNKRAPGTPARFSGSLLGGKAALTLLGAQPEDEAEYYCALWYSNLWVFGGGTKLTVLG
binds: [1] | [2] | [3]

B2: mAb#Bremen (antibody, human IgG1, lambda, V domains shown)
VH: EVQLVESGGGLVKPGGSLRLSCAASGFTFNTYAMNWVRQAPGKGLEWVGRIRSKYNNYATYYADSVKDRFTISRDDSKNTLYLQMNSLKTEDTAVYYCTTHGNFGNSYVSWFAYWGQGTLVTVSS
VL: QTVVTQEPSLTVSPGGTVTLTCRSSTGAVTTSNYANWVQQKPGQAPRGLIGGTKFLAPGTPARFSGSLLGGKAALTLSGVQPEDEAEYYCALWYSNLWVFGGGTKLTVLG
binds: [1] | [2] | [3]

B3: mAb#München (antibody, human IgG1, lambda, V domains shown)
VH: EVQLVESGGGLVKPGGSLRLSCAASGFTFNTYAMNWVRQAPGKGLEWVGRIRSKYNNYATYYADSVKDRFTISRDDSKNTLYLQMNSLKTEDTAVYYCTTHGNFGNSYVSWFAYWGQGTLVTVSS
VL: QTVVTQEPSLTVSPGGTVTLTCRSSTGAVTTSNYANWVQQKPGQAPRGLIGGTKFLAPGTPARFSGSLLGGKAALTLLGAQPEDEAEYYCALWYSNLWVFGGGTKLTVLG
binds: [1] | [2] | [3]

Reference: patent US20200377594A1
